# Test results as given in PubChem BioAssay AID624297 (National Center for Advancing Translational Sciences (NCATS), 2012).
# Among all 340,000 compounds or so, about 6,200 (1.8%) were called active. The shares of active, inactive and inconclusive entries below differ from those in the screen. Calls come from the whole dose curve; as a rule, active = well fitted activation curve with a large enough effect; inconclusive = small, poorly fitted or top-dose-only effect; inactive = no such curve, though single readings can be large or run the other way. Potencies beside an inconclusive call are fits to weak or partial responses and may not hold up.
# Test: A quantitative high throughput screen for small molecules that induce DNA re-replication in SW480 colon adenocarcinoma cells. For re-replication activation: % of control where 0% means no effect. Note: nearly all actives have a fitted effect of over 55% in size.
# Settings: Hoechst DNA content imaging, 48 h; re-replication activation: at 46.1 µM (top of the series) unless noted
# Outline: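 Image-based read-out: total Hoechst fluorescence of nuclei (405 nm excitation, 500-530 nm emission), with hits raising the fraction of high-intensity nuclei. SW480 colon cells incubated 48 hr with compounds at 37 C.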
# Potency is the fitted concentration of half-maximal effect.
Structure (SMILES),re-replication activation,Potency
O=C(CSc1nnc(-c2ccco2)o1)N1c2ccccc2CCc2ccccc21,inactive: -8.13%,–
O=C(N(c1ccccc1)c1ccccc1)N(c1ccccc1)c1ccccc1,–,"inconclusive: 20.6 µM [activator, single point]"
CC(=O)c1cc2c(cc1NC(=O)c1ccc(-n3nc(C)cc3C)cc1)OCO2,–,"inconclusive: 0.92 µM [activator, full curve, poor fit]"
O=C(N/N=C/c1cn(-c2ccccc2)nc1-c1cc2ccccc2o1)c1cccnc1,–,"inconclusive: 29.1 µM [activator, single point]"
Nc1ccn(C2OC(COC(=O)C34CC5CC(CC(C5)C3)C4)C(O)C2O)c(=O)n1 (stereo not drawn),–,"inconclusive: 3.66 µM [activator, full curve]"
COC(=O)c1cc2sccc2n1CC(=O)Nc1cccc(SC)c1,–,"inconclusive: 18.4 µM [activator, single point]"
COc1ccc(NC(=O)CCCCCN2C(=O)[C@@H]3Cc4ccccc4CN3C2=O)cc1Cl,–,"inconclusive: 23.1 µM [activator, single point]"
Cn1c2ccccc2c2cc(/C=N/NC(=O)c3ccc(O)cc3O)ccc21,–,"inconclusive: 14.6 µM [activator, partial curve]"
CCCOc1ccc2nc(NC(=O)OC)sc2c1,–,"inconclusive: 2.11 µM [activator, full curve, poor fit]"
CC(C)COc1cccc(C(=O)Nc2ccc(S(=O)(=O)N3CCOCC3)cc2)c1,–,"inconclusive: 29.1 µM [activator, single point]"
CCN(CC1CCCN(CCc2cccc(F)c2)C1)C(=O)c1cc(C)oc1C (stereo not drawn),inactive: 2.31%,–
COc1cc2ccccc2cc1C(=O)N/N=C/c1ccc2c(c1)OCO2,–,"inconclusive: 29.1 µM [activator, single point]"
COc1ccc(-n2c(C)c([N+](=O)[O-])c3ccc(O)c(CN4CCCCC4)c32)cc1,–,"inconclusive: 23.1 µM [activator, partial curve, poor fit]"
CCOC(=O)c1sc(=S)n(-c2ccccc2Cl)c1SC,–,"inconclusive: 25.9 µM [activator, single point]"
COCCCNC(=O)c1ccc([N+](=O)[O-])c(Cl)c1,–,"inconclusive: 18.4 µM [activator, partial curve, poor fit]"
Cc1ccc(CNC(=O)Cc2ccc(-n3c(=O)[nH]c4ccsc4c3=O)cc2)cc1,–,active: 6.51 µM
COc1ccccc1N1C(=O)CC(c2ccccc2)CC1=O,–,"inconclusive: 3.26 µM [activator, single point]"
COc1cc(/C=N/NC(=O)c2cccnc2)ccc1OS(=O)(=O)c1ccc(C)cc1,–,"inconclusive: 32.6 µM [activator, partial curve, poor fit]"
Nc1nnnn1CC(=O)N/N=C/c1ccc(-c2cccc(Cl)c2)o1,–,"inconclusive: 29.1 µM [activator, single point]"
CCOc1ccccc1CN1CCNC(=O)C1CC(=O)N(C)Cc1nonc1C (stereo not drawn),inactive: -0.352%,–
O=C(NC(CSCc1ccccc1)C(=O)N/N=C/c1ccc(O)cc1O)c1ccc([N+](=O)[O-])cc1 (stereo not drawn),–,"inconclusive: 3.55 µM [activator, full curve, poor fit]"

Structure (SMILES),re-replication activation,Potency
Cc1cc(CN2CCCC(C(=O)Nc3ccc(-c4nc5ccccc5[nH]4)cc3)C2)n[nH]1 (stereo not drawn),–,"inconclusive: 29.1 µM [activator, single point]"
Cn1c(N)c(C(=O)COC(=O)C2CC(=O)N(Cc3ccccc3)C2)c(=O)n(C)c1=O (stereo not drawn),–,"inconclusive: 0.259 µM [activator, single point]"
O=C(CSc1nccn1-c1ccccc1)NCc1ccc2c(c1)OCO2,–,"inconclusive: 20.6 µM [activator, single point]"
Cc1ccccc1C1c2[nH]c3ccccc3c2C[C@H]2C(=O)N(c3ccccc3C(=O)NCCCN3CCOCC3)C(=O)N12 (stereo partly drawn),–,"inconclusive: 25.9 µM [activator, partial curve, poor fit]"
CCOC(=O)C(C(=O)N(C)Cc1ccccc1)C1CCCCC1 (stereo not drawn),–,"inconclusive: 20.6 µM [activator, single point]"
CC(=O)c1c(C)[nH]c(C(=O)OCc2ccccc2)c1C,–,"inconclusive: 0.731 µM [activator, partial curve, poor fit]"
O=C(/C=C/c1ccc(O)cc1)OCc1occc(=O)c1O[C@@H]1OC(CO)[C@@H](O)[C@H](O)[C@@H]1O (stereo partly drawn),–,"inconclusive: 4.11 µM [activator, partial curve, poor fit]"
Cn1c(SCC(=O)NNC(=O)c2ccccc2)nnc1C1CC1,–,"inconclusive: 0.092 µM [activator, full curve, poor fit]"
COC(=O)c1cn[nH]c1NC(=S)Nc1ccc(Cl)c(Cl)c1,–,"inconclusive: 22.4 µM [activator, single point]"
O=C(Nc1nc(-c2ccccn2)cs1)c1ccco1,–,active: 4.11 µM
Cn1c(SCC(=O)N/N=C/c2ccccn2)nnc1-c1ccccc1,inactive: -48.1%,–
COC(=O)c1ccc(Nc2nc(N3CCOCC3)nc(N3CCOCC3)n2)cc1,–,"inconclusive: 25.9 µM [activator, partial curve, poor fit]"
CCOc1ccc(C(=O)C2CCN(CC(=O)Nc3ccccc3N3CCOCC3)CC2)cc1,–,"inconclusive: 29.1 µM [activator, single point]"
O=C(/C=C/Nc1cccc(C(F)(F)F)c1)c1ccc(Oc2ncccn2)cc1,inactive: -36.2%,–
CCCn1c2ccc(F)cc2c2nnc(SCCN3CCCCC3)nc21,–,"inconclusive: 16.4 µM [activator, single point]"
O=C(COC(=O)COc1cccc(Br)c1)Nc1c(Cl)cccc1Cl,–,"inconclusive: 0.0046 µM [activator, full curve, poor fit]"
COCCn1c(-c2ccccc2)nc2ccccc21,–,"inconclusive: 20.6 µM [activator, partial curve, poor fit]"
O=C(N/N=C/c1cc2c(cc1[N+](=O)[O-])OCO2)c1ccccn1,–,"inconclusive: 29.1 µM [activator, single point]"
Cc1ccc(N2CC(NC(=O)C3CC3)CC2=O)cc1 (stereo not drawn),–,"inconclusive: 5.8 µM [activator, single point]"
CCOC(=O)C1=C(C)N(C)C(=S)NC1c1ccccc1Cl (stereo not drawn),inactive: 1.93%,–
COc1ccccc1NC(=O)N(Cc1ccc2c(c1)OCO2)Cc1nc2ccccc2c(=O)[nH]1,inactive: -4.75% [at 9.22 µM],–

Structure (SMILES),re-replication activation,Potency
CCN(C(=O)c1ccc2c(Cl)c3c(nc2c1)CCC3)c1ccc(C)c(C)c1,–,"inconclusive: 13 µM [activator, partial curve, poor fit]"
CCc1nnc(NC(=O)CN2CCN(c3ccccc3OC)CC2)s1,–,"inconclusive: 0.103 µM [activator, full curve, poor fit]"
Cc1ccc(S(=O)(=O)N(CC2CO2)c2cc(Cl)ccc2Cl)cc1 (stereo not drawn),–,"inconclusive: 18.4 µM [activator, single point]"
CN1C(=O)C(O)(CC(=O)/C=C\c2ccc3c(c2)OCO3)c2ccccc21 (stereo not drawn),–,"inconclusive: 29.1 µM [activator, partial curve, poor fit]"
CCC(C)(C)NC(=O)c1ccc2c(c1)N(CC(=O)N1CCCC1)C(=O)C(C)(C)O2,–,"inconclusive: 16.4 µM [activator, single point]"
CC(=O)/C(=N\Nc1ccccc1Cl)Sc1cccc2cccnc12,–,"inconclusive: 18.4 µM [activator, single point]"
C[C@H](NC(=O)c1nc[nH]c1C(=O)N[C@@H](Cc1ccccc1)C(=O)OC(C)(C)C)c1ccccc1,–,"inconclusive: 23.1 µM [activator, single point]"
CC(C)(C)NS(=O)(=O)c1ccc(CCC(=O)NCc2ccccn2)cc1,inconclusive: -26.2% [activator],–
COc1ccc(NC(=O)CN2C(=O)COc3ccc(S(=O)(=O)N4CCCCC4)cc32)c(OC)c1,inactive: -5.25%,–
COc1cccc(NC(=O)CCN2C(=O)c3ccccc3Sc3ncccc32)c1,–,"inconclusive: 23.1 µM [activator, single point]"
COc1ccc2c(c1)cc(C(=O)N[C@@H](CCSC)C(=O)N1CCC[C@H]1C(=O)O)n2C,inactive: 4.52%,–
COc1ccc(N=C2SCC(=O)N2Cc2ccccc2)cc1,–,"inconclusive: 6.51 µM [activator, full curve]"
O=C(OC1Cn2c(=O)ccc(=O)n2C1)c1ccc([N+](=O)[O-])cc1,inactive: 9.38%,–
COC(=O)c1ccc(C(=O)OC)c(NC(=S)N2CCCC(C)C2)c1 (stereo not drawn),–,"inconclusive: 0.206 µM [activator, full curve, poor fit]"
c1ccc(N2CCN(c3ncnc4scc(-c5cccs5)c34)CC2)cc1,–,"inconclusive: 25.9 µM [activator, single point]"
O=c1cc(SCc2ccccc2)nc[nH]1,inactive: -6.29%,–
C=CCn1c(SCC(=O)N(CCOC)c2c(N)n(CC(C)C)c(=O)[nH]c2=O)nc2ccccc21,inactive: 0.407%,–
COc1ccc2oc(=O)cc(-c3cc4ccccc4o3)c2c1,inactive: 28.5%,–
CCCCN(CCCC)CC(O)c1cc(Cl)cc2c1-c1ccc(Cl)cc1/C2=C/c1ccc(Cl)cc1 (stereo not drawn),–,"inconclusive: 23.7 µM [activator, partial curve]"
COc1cc2c(c(OC)c1OC)-c1ccc(NC(=O)c3ccc(F)cc3)c(=O)cc1[C@@H](NC(C)=O)CC2,–,"inconclusive: 16.4 µM [activator, single point]"
CC(=O)c1ccc(C#CC(C)(C)O)s1,–,"inconclusive: 32.6 µM [activator, single point]"

# A second format for four compounds above:
Structure (SMILES) | re-replication activation | Potency
Nc1nnnn1CC(=O)N/N=C/c1ccc(-c2cccc(Cl)c2)o1 | – | inconclusive: 29.1 µM [activator, single point]
O=C(NC(CSCc1ccccc1)C(=O)N/N=C/c1ccc(O)cc1O)c1ccc([N+](=O)[O-])cc1 (stereo not drawn) | – | inconclusive: 3.55 µM [activator, full curve, poor fit]
O=C(/C=C/c1ccc(O)cc1)OCc1occc(=O)c1O[C@@H]1OC(CO)[C@@H](O)[C@H](O)[C@@H]1O (stereo partly drawn) | – | inconclusive: 4.11 µM [activator, partial curve, poor fit]
COc1cc2c(c(OC)c1OC)-c1ccc(NC(=O)c3ccc(F)cc3)c(=O)cc1[C@@H](NC(C)=O)CC2 | – | inconclusive: 16.4 µM [activator, single point]
